# Assay results: PMC10279913
# Sequences of proteins named here, by UniProt entry; tags and fusion partners are left off. A change or cut given only in a name is not applied to a line headed by its entry.
# UniProt Q9N536: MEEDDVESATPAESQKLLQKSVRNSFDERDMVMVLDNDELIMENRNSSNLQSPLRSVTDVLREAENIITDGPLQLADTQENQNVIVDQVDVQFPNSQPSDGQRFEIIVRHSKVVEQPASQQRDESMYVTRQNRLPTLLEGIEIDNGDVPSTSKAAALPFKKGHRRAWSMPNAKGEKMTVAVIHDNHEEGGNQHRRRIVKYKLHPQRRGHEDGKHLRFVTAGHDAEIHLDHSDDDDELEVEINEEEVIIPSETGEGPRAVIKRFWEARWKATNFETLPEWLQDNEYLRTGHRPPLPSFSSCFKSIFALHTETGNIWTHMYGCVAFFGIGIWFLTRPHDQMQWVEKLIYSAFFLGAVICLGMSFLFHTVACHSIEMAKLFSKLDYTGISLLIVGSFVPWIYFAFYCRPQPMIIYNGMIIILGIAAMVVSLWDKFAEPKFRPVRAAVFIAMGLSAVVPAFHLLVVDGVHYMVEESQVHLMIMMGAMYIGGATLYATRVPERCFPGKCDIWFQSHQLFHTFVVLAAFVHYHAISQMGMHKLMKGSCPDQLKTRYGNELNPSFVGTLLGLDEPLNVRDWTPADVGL
# No constants are given. Whether binding was seen depends on the method and setting. Binding seen in cells or lysates may run through a third protein. Here binding means that the protein was enriched with, or labelled near, the bait; the list need not be complete.
# Target: HA::PAQR-2 (C. elegans) (UniProt Q9N536)
# Experiment: affinity purification with mass spectrometry; anti-HA immunoprecipitation (rabbit mAb C29F4 + protein A-agarose, 1 h, 4 °C) from lysates of whole worms carrying HA::PAQR-2; 25 mM Tris pH 7.5, 300 mM NaCl, 0.1% NP-40, no protease inhibitor; eluted with 0.2 M glycine pH 2.5; 2 IPs; control: worms without HA-tagged protein
row,binding,Binder
1,binds,"Probable coatomer subunit gamma (protein, UniProt Q22498 1-870) MKTNKKDEETGGNVYAHLDKTSVLQEARAFNETPINARKCCFILSKLIYIIQQGESIGRTEATEAFFGVTKLWQSKDVSLRRMVYLAVKELAEVSDDVIIVTSSLTKDMTGREDLYRAAAIRALCKITDTGMLQTIERYMKQAIVDRNSAISSSAIVSSIHLMRKSSEVVRRWANEVQEAVSSDNHMVQYHALALLYQIRANDRLAVNKLVQKFSKNALRSPYAVCYLIRIATRCLVDDDQPDSSVFTFIESCLRHKSEMVVYEAARAIVSLPQTTPSEIQPAITALQMCCTSPKAAVRFAAVRTLNKVAMAHPNAVMSCNVDLEKFITDPNRSIATLAITTLLKTGAESSVERLMQQIAGFVNEISDEFKIVVVDAIRSLCSRYPRKHTVMMPFLAKMLRSDGSYDYKKAIVETIIAIIEENPDAKVAGLAHLCEFIEDCEHDNLSTRVLHLLGREAPKTPNPSSYIRFIYNRVILESTKVRAAAVTALAKFGAQCVDLRPSIQVLLKRCLLDSDDEVRDRATFYLKMLTEAAEGLIHNFILDGLQVSPSGLERSILDYLRSGSYSSPFDLRVVPVTQQALSQPEKRVPQLVEEEEKPKAPKVEPYAAQLAAIPQFAALGPVFKSSTRIALTESIAEYTVHMIKHTFANAMVLQFECKNTMNDQLLLDVSVELEDPDGEWETGNTVQIDKLPYGEVHSAFSLLEFPDSGAISGSLGAILKFKVMDVDPTSGEPDSDDTYEQTYVLEEVDVNVSDSVQGVAKSSFGSAWEALGDDATREETFQLSTVENIPDAVKKISEILGLVPCERSDRVPEGKTQHTVFLSGVFRGGYDVLSKATVAVDPNDNSIAMNIIIKSNEPLVADLVISAVV"
2,binds,"Probable glutathione S-transferase 7 (enzyme, UniProt P91253 1-206) MVHYKVSYFPIRGAGEIARQILAYAGQDFEDNRIPKEEWPAVKPSTPFGQLPLLEVDGKVLAQSHAIARYLARQFGINGKCAWEEAQVNSVADQFKDYLNEVRPYFMVKMGFAEGDLDALAKDVFLPGFKKHYGFFANFLKSAGSGYLVGDSLTFVDLLVAQHTADLLAANAALLDEFPQFKAHQEKVHSNANIKKWLETRPVTPF"
3,binds,"Very-long-chain 3-oxooacyl-coA reductase let-767 (enzyme, UniProt Q09517 1-316) MACQCFLVGAGYVALAAVAYRLLTIFSNILGPYVLLSPIDLKKRAGASWAVVTGATDGIGKAYAFELARRGFNVLLVSRTQSKLDETKKEILEKYSSIEVRTAAFDFTNAAPSAYKDLLATLNQVEIGVLINNVGMSYEYPDVLHKVDGGIERLANITTINTLPPTLLSAGILPQMVARKAGVIVNVGSSAGANQMALWAVYSATKKYVSWLTAILRKEYEHQGITVQTIAPMMVATKMSKVKRTSFFTPDGAVFAKSALNTVGNTSDTTGYITHQLQLELMDLIPTFIRDKILTNMSVGTRAAALRKKEREAKSQ"
4,binds,"Serine hydroxymethyltransferase (enzyme, UniProt P50432 1-507) MFARIVSRRAATGLFAGASSQCKMADRQVHTPLAKVQRHKYTNNENILVDHVEKVDPEVFDIMKNEKKRQRRGLELIASENFTSKAVMDALGSAMCNKYSEGYPGARYYGGNEFIDQMELLCQKRALEVFGLDPAKWGVNVQPLSGSPANFAVYTAIVGSNGRIMGLDLPDGGHLTHGFFTPARKVSATSEFFQSLPYKVDPTTGLIDYDKLEQNAMLFRPKAIIAGVSCYARHLDYERFRKIATKAGAYLMSDMAHISGLVAAGLIPSPFEYSDVVTTTTHKSLRGPRGALIFYRKGVRSTNAKGVDTLYDLEEKINSAVFPGLQGGPHNHTIAGIAVALRQCLSEDFVQYGEQVLKNAKTLAERMKKHGYALATGGTDNHLLLVDLRPIGVEGARAEHVLDLAHIACNKNTCPGDVSALRPGGIRLGTPALTSRGFQEQDFEKVGDFIHEGVQIAKKYNAEAGKTLKDFKSFTETNEPFKKDVADLAKRVEEFSTKFEIPGNETF"
5,binds,"Very-long-chain (3R)-3-hydroxyacyl-CoA dehydratase hpo-8 (enzyme, UniProt O17040 1-218) MSVQTYLVAYNVLQILGWSAILVKTVLGLANGLTWPQLYESVEFELKIFQTAAILEVIHAIVGLVRSPVGTTAMQVTSRVVLVWPILHLCSTARFSIGVPLLLVAWSVTEVIRYSFYALSVLKQPIPYFLLYLRYTLFYVLYPMGVSGELLTLFASLNEVDEKKILTLEMPNRLNMGISFWWVLIIAALSYIPGFPQLYFYMIGQRKKILGGGSKKKQ"

# Further lines, the binder ahead of its results:
row,Binder,binding
1,"Dolichyl-diphosphooligosaccharide–protein glycosyltransferase 48-kDa subunit (protein, UniProt P45971 21-445) DRVLVLGETAAVKDTHSVFLNSVKERGHELTVRAADDSQLALFKHGQLIFDHLFILAPGVQVFGGSLSPSEISKFVDAGGNVLVAAGSNIGDALREIAAEHGFEFEEAGTSVIDHHNYDQTLDSGDHTTLVVGKDQLISAELIVGNSAKLHPVLFKGIGLVAGKTNNLALSIVRASGTAYSYDPKAVRATNPSIAGSRTLLVGGLQSRNNARIVFTGSSELFSNTFFSAKTNSVNPSVQGAQSGNADFATAITRWVMKESGVLRVKTVNHHKKGETVPPVEGYFITEDVVYTIEIEELKNGKWVPFQGKDVQLEFVRIDPFVRATLKNSNGRLSVAFKLPDVLGVFKFLVDYRRVGYTHLYDVQQVSVRPLWHTQYERFIRSAYPYYASSFSMMAGLVLFSIVYLYHKDTPVKGAKVLDSEKKKN",binds
2,"Fatty acid–binding protein homolog 6 (protein, UniProt O01812 1-135) MSQEFVGRWKLIHSENFEEYMKEVGVGLITRKAAANLKPTLEIKVEGDLWYSNQYSTFKNTTLSFKLGQEFDETTPDGRTVKSVVNFENGKFIHIQKKIKDSDKESIITRWLEGDKLITTLESGSVVSRREYVRE",binds
3,"Fatty acid–binding protein homolog 5 (protein, UniProt O01814 1-136) MSAEQFVGRWKLVESENFEDYLKEVGVGLLLRKAACAAKPTLEIKVNGNKWHVNQLSTFKNTTLEFTLGVEFDETTPDGRQFKSTITIEDGKVVHVQKRIKDSDHDSVITRWFEGEKLITTLQSGSVISRRAYIRE",binds
4,"Probable coatomer subunit beta' (protein, UniProt Q20168 1-1000) MPLRLDVKRKLLARSDRVKCVDLHPVETWLLAALYNGNVHIWNYETQTLVKSFEVCDVPVRAAKFVPRKSWVVTGSDDMHIRVFNYNTLERVHQFEAHSDYLRSLVVHPTLPYVISSSDDMLVKMWDWDNKWAMKQSFEGHTHYVMQIAINPKDNNTFATASLDKTVKVWQFGSNVPNFTLEGHEKGVNCVDYYHGGEKPYIISGADDHLVKIWDYQNKTCVQTLDGHAQNVSSVCFHPELPLIITGSEDSTVRLWHANTYRLETTLNYGLERVWCIQAQKGANTIAIGYDEGSVTLKLGREEPAVSMDSSGKILWAKHSEIQQANLKTISTEESEAIQDGERLPLSVKDLGSSEIYPQTLAHSSNGRFVVACGDGEYIVYTAMALRNKDFGQGLEFVWAVDPNMFAVRESATNVKIKKNFKDHKSIRSDMVLEGISGGPLLALRSNNSLCFFDWESAVLVRRIEITSKSIYWSDNGEMVAICGDDSFYVLKYSAEAVANATEVTEDGIEDAFEVIGEQAEAVKTGFWIGDCFIFTTALNRINYYVGGEIVTIAHVDRPLYLLGYMAKESRVYAVDKDLNVISYKLLLSVLEYQTAVMRRDFDTADKVLTTIPKEQRTRVAHFLEKQGFKKQALAVSQDPDHKFDLSVALGDLKTAYDLALQSDSEEKWKALSNAATLKSELLLAGECLGRARDFGGLMLLATCAGSAPLLQKLADDSAAAESHNISFLSSLLLGDIDACLDKLISTGRLPEAAFLARTHAPSRVSSILELWKAKASGHSEKSSRKIGESLADPVKYENLFPGFTQSLKAESFVREISKIPVPASVRVPSAATRNIQEELDEAVASGAVSFTDDGQAVLKNAPRQTETQLKAPPPPSVARQPSPVRQPSPIREPSPIREPEPEEEEEQEEFDDDQQEVHVPANQESADAHGTSKTPDVVLETSRPDIVPPRGSAAPDLVSASSQQSAQDFQDDTQWSDEDFGDAENGDLNMDDLNLDEED",binds
5,"Coatomer subunit epsilon (protein, UniProt O62246 1-292) MADKLFSIRNYFFLGSYQSCIGEALKFSSKNEEEKQEKDVYLYRSYIAQGQAFIPLKEIPAATKSADLAAVRRYAEFRNNPAAKKKILAEVQEEVASRNIKSEIAAVLAATILNEADLSQDAFRAVSRFEGLEARASKVFILIKMNKRKLAIGEVKKMNQIDEDATLSQLANALVTSFGASGKVKDALYIYSEMSDKYGRTTDLEMHQAVVSILTQDYAAAEELLESALERDNKDADVLINSIVSAQLNEKDDDVVERFISQLKHEHPNHPWVIDFNEKEAEFDRVASDSRA",binds
6,"ELO-2 (enzyme, UniProt Q9XVQ9 1-274) MAAAQTSPAATLVDVLTKPWSLDQTDSYMSTFVPLSYKIMIGYLVTIYFGQKLMAHRKPFDLQNTLALWNFGFSLFSGIAAYKLIPELFGVFMKDGFVASYCQNENYYTDASTGFWGWAFVMSKAPELGDTMFLVLRKKPVIFMHWYHHALTFVYAVVTYSEHQAWARWSLALNLAVHTVMYFYFAVRALNIQTPRPVAKFITTIQIVQFVISCYIFGHLVFIKSADSVPGCAVSWNVLSIGGLMYISYLFLFAKFFYKAYIQKRSPTKTSKQE",binds
7,"Immunoglobulin domain and leucine-rich repeat–containing protein 2 (protein, UniProt P34595 21-773) QRNRSSSPSGFLDLQLEKCPQVLGCRCVRDSTRNIQCFSIDESKLLEIQKIYGSNIQRLELHNWQHDQLNFDIFAPFPQLEHIILRDGDLESLNGTVIHPTLKVLSIENSELTSSSEVCRLLSIFPKIQSLSLSKNYFEKFECDTSNTKLKILDLSQNRISHLEVPNTLRVLNVSRNRLTSFENISTKLTDLDISFNKLSLWPSFDDWKFPNLRSLSAIKLDLQTGFQLDAPLLNSLNIDGASLRYLNFHQILTPKLKKFSARYLTELRNIAGRLPSTVTDVAFTDTMLRTLPADFIPMSSTNHMQKVSFDFSTNQLLCDKCLLQWSLPVYAQTSIRKDCNLTREEIESASCKIGVVANDTGIQYGKYEKPTAISCFSYGVPSPKISWWRFRPAEKLGSYDPITDEISYTNVSETMKESYEIQSGGSLLIRSPNRSHVERYVCVVENEYGKDYGIYHFRLDYLDWYSYDVFNSVFWGGLATSLIVCLISFLLNITWILTRKSALWWIQRAERLSRVRKMVEAMEKYRVRQMESLHEKYTKRVQIVRDNYHQQVEALRVSYASQQEKFQNYKAAQVDAVHSHLDAMRDGYNNQLGRVREYGSKRAEQLWESYERQVNRMRTFSLQHRLKMMRQYKVKQRYVNKLLESLQATSPEVQLENEEKVRAALEIPDDLATIDGSMDTPSRLSRSSSFHSLPEYVIDEQGNVRPGIIPTNAPSIRFTTKPTTSSISNEASTSSPSSSGAHRSPDSPPEKR",binds
8,"DHS-3 (protein, UniProt A5JYX5 1-309) MPYVFLLSPQLEIASQWDGYYEKTFEVSDHVHKEIILKVSGQTVLITGSGSGLGRLMAFEFGKLGARLVLWDINEQGNKETLKELEAMGVEAKAYTVDLSEYKEINRTADLVKSEVGKVDILVNNAGIVTGKKLLQCPDELMVKTVSVNTNALFFTTKNFLPGMLESNKGHIVTIASMAGKCGVAGLVDYCASKHGAVGFNDSLASELYALKKDVKTTVVCPIYINTGMFDGIATKWPTLLPILSPEYVVDCIMEAVLTDRAFLAIPKFSYIFIALAGLLPTEVLNLYGDHFGITHSMDHFKGRQSRQA",binds
